PubChem BioAssay AID602196 – INSERM – 2012

Purpose: 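Knock-downs that protect lung cancer cells from cisplatin or sensitise them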
Cell system: human A549 lung cancer cells
Reagents: siRNA pair against human genes
Duration: 48 h transfection before cisplatin; time from cisplatin to read-out not stated
Conditions: cisplatin at a dose killing half of control-siRNA cells; exact dose and duration not given
Read-out: 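Shift in cisplatin death relative to control siRNA, from -50 (all cells die) to +50 (no cells die); siRNAs harmful on their own scored 0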
Scale: two-siRNA summed score (-2 to +2): higher = both siRNAs protect from cisplatin killing; -2 means both sensitise
Active means: 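Each siRNA scores 0 if harmful alone by LDH or WST-1, otherwise +1 if it reduces and -1 if it increases cisplatin killing; a gene is active when both siRNAs agree (sum +2 or -2)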
Meaning of the calls: active = both siRNAs shift cisplatin killing the same way; inactive = no consistent shift, or siRNA harmful alone
The deposit covers about 23,000 reagents; this is a random part of them. 455 of them (2%) were called active. 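Active includes both protection and sensitisation; some change values fall well beyond the stated -50 to +50 range.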 The numbers tell different reagents against one gene apart. Further read-outs or replicates are left out here. No sequences are given here. Not stated in the record: the amount of reagent.

Against CRISP3 the deposit lists two-siRNA summed score (-2 to +2) = 0; inactive.
LOC442652 gave two-siRNA summed score (-2 to +2) = 0; inactive.
MYO5B gave two-siRNA summed score (-2 to +2) = 0; inactive.
L1TD1 scored two-siRNA summed score (-2 to +2) = 0; inactive.
Silencing of OR6C75 resulted in: two-siRNA summed score (-2 to +2) = 0; inactive.

Single entries from the list:
For “Outcome”, MYO5B shows inactive
OR6C75, Outcome = inactive

Next results follow:
LOC441436 gave two-siRNA summed score (-2 to +2) = 0; inactive.
TEX36 showed two-siRNA summed score (-2 to +2) = 1; inactive.
LOC391511 gave two-siRNA summed score (-2 to +2) = 1; inactive.
BCAS2 showed two-siRNA summed score (-2 to +2) = 1; inactive.
With knock-down of RNF213 #1, the record shows two-siRNA summed score (-2 to +2) = 0; inactive.
RNF213 #2 showed two-siRNA summed score (-2 to +2) = 0; inactive.
For LOC441843, the entry reads two-siRNA summed score (-2 to +2) = 0; inactive.
